According to PubChem BioAssay AID1671190 (National Center for Advancing Translational Sciences (NCATS), 2021):
Where “and” joins values, the source holds several entries; their conditions need not be identical. Identical values can stand only once. Out of some 580,000 compounds screened, about 6,100 (1.1%) were called active. Inconclusive results, whose numbers are uncertain, are shown with a selection of clear calls. Calls follow the shape of the dose curve; as a rule, active = well fitted inhibition curve with a large enough effect; inconclusive = small, poorly fitted or top-dose-only effect, or another doubt; inactive = no such curve, though single readings can be large or run the other way. A potency beside an inconclusive call is a rough fit, not a confirmed value. A structure can be active in one record and inactive in another.

By UniProt entry, the sequences of proteins in these tests, tags left out. Where a name states a change or a piece, a line headed by the entry shows the natural chain unless it says otherwise.
UniProt P18054: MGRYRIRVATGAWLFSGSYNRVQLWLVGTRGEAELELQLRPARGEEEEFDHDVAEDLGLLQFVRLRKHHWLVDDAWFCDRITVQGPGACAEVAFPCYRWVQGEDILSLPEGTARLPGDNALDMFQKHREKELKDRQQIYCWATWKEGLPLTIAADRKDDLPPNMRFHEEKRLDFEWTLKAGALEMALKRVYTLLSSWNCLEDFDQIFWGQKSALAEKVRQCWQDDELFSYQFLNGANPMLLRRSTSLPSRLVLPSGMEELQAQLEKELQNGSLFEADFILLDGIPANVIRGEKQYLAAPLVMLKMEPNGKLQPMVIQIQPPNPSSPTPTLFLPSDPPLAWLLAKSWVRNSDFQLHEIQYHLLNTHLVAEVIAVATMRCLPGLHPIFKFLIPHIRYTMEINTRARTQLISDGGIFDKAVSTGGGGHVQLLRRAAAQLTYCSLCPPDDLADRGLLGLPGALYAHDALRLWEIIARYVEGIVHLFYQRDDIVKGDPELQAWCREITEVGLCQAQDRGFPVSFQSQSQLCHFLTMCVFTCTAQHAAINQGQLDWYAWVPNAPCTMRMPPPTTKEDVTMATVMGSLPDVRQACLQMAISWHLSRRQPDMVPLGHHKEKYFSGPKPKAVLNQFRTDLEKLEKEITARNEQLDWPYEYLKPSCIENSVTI

Each compound was assayed against Polyunsaturated fatty acid lipoxygenase ALOX12 (Homo sapiens) (UniProt P18054) (assay: Primary qHTS assay for inhibitors of human arachidonate 12S-lipoxygenase (ALOX12): Round 2). Conditions: purified 12hLO, xylenol orange hydroperoxide absorbance; activity change, negative = inhibition: at 108 µM (top of the series) unless noted.
Method in brief: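 Hydroperoxide product was detected by ferrous iron/xylenol orange as the 573 to 405 nm absorbance ratio. Arachidonic acid at 40 uM (final) was turned over for 30 min at room temperature by 150 nM human 12hLO, pH 7.0 Hepes buffer, after 15 min compound preincubation.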
% is scaled to controls: 0 for no effect and ±100 for the full control effect; potency is read from the fitted curve at half-maximal effect.

Row | SMILES | activity change, negative = inhibition | Potency
1 | COc1ccc2c(=O)c3c(=O)n(-c4ccccc4)c(-c4ccc(C)cc4)nc3oc2c1 | inactive: 19.4% | –
2 | CCOc1c(OC)cccc1C(=O)NCC1(c2ccccc2)CCCC1 | – | inconclusive: 12.6 µM [inhibitor, partial curve, poor fit]
3 | Cc1cc(C(=O)CSc2nnnn2C)c(C)n1-c1ccc2c(c1)OCCO2 | – | inconclusive: 28.2 µM [inhibitor, partial curve, poor fit]
4 | CCN(CC)C(=O)Cn1cc(C(=O)N2CCN(c3nc4ccccc4s3)CC2)nn1 | inactive: 47.6% | –
5 | O=C1OC2(CN(c3ccc4c(c3)OCO4)C2)CN1c1ccccc1 | – | inconclusive: 31.6 µM [inhibitor, full curve]
6 | Cc1ccccc1NC(=S)N1CCCN(Cc2ccc(F)cc2)C1 | – | inconclusive: 44.7 µM [inhibitor, partial curve, poor fit]
7 | CCCCn1c(SCC(=O)NCc2ccco2)nc2c(sc3ccccc32)c1=O | inactive: -25.8% | –
8 | CCN(CC(=O)NC)S(=O)(=O)N1CCCCC1 | inactive: 42.1% | –
9 | Cc1ccc2nc(-c3ccc(NC(=O)[C@@H]4CCCN4C(=O)c4cccs4)cc3)sc2c1 | – | inconclusive: 63.1 µM [inhibitor, partial curve, poor fit]
10 | CCC(C)NC(=O)C1=Cc2sc3c(c2CS1)CCCC3 (centres undefined) | – | active: 14.1 µM
11 | Cc1c(O)ccc2c(CN(C)CCO)cc(=O)oc12 | inactive: -3.63% | –
12 | COC(=O)c1c(NC(=O)c2cc3ccccc3s2)sc(C)c1C | – | inconclusive: 39.8 µM [inhibitor, partial curve, poor fit]
13 | c1ccc2[nH]c(CN3CCCCC3)nc2c1 | inactive: 8.61% | –
14 | CCOCCCNC(=O)c1c(C)c(C(=O)OCC)n(C)c1C | inactive: 0% | –
15 | CCOc1ccccc1N(CC)C(=O)Cc1noc2ccccc12 | – | inconclusive: 39.8 µM [inhibitor, single point]
16 | CCN(C(=O)CSc1nc(-c2ccc(C(C)C)cc2)no1)c1ccccc1 | inactive: -20.7% | –
17 | Cc1ccc(N2CCN(C(=O)c3cn(C)c4ccc(S(=O)(=O)N5CCC(C)CC5)cc4c3=O)CC2C)cc1 (centres undefined) | – | inconclusive: 50.1 µM [inhibitor, partial curve, poor fit]
18 | O=C(C1CCCCC1)N(Cc1cccnc1)c1nc2ccc(Cl)cc2s1 | – | inconclusive: 126 µM [inhibitor, partial curve, poor fit]
19 | COc1ccccc1NC(=O)c1ccc(NC(=O)c2ccccc2SCC2CCCO2)cc1 (centres undefined) | – | inconclusive: 35.5 µM [inhibitor, partial curve, poor fit]
20 | COc1cc(N=c2ssnc2Cl)c(OC)cc1Cl | – | inactive and active: 2.51 µM
21 | O=C(Cc1ccc(Cl)cc1)N1CC(c2nnc(-c3ccncc3)o2)C2(CCOCC2)C1 (centres undefined) | – | inconclusive: 5.62 µM [inhibitor, partial curve, poor fit]
22 | CC(Sc1c(Cl)cccc1Cl)C(=O)NCCC1=CCCCC1 (centres undefined) | – | inconclusive: 39.8 µM [inhibitor, partial curve, poor fit]

Row | SMILES | activity change, negative = inhibition | Potency
23 | COCc1cc(=O)c2ccccc2o1 | – | inconclusive: 39.8 µM [inhibitor, partial curve, poor fit]
24 | O=C(O)C1=C(Nc2ccccc2)OCC1=O | – | inconclusive: 56.2 µM [inhibitor, partial curve]
25 | CCOc1ccc(CN(CCc2ccc3c(c2)OCO3)Cc2cc(OC)cc(OC)c2)cc1 | – | inconclusive: 3.55 µM [inhibitor, full curve, poor fit]
26 | Cc1ccc(-c2noc([C@@H]3C[C@@H](O)CN3Cc3cccc(OC(F)(F)F)c3)n2)cc1F | – | inconclusive: 35.5 µM [inhibitor, full curve, poor fit]
27 | c1ccc2c(Cc3nnc([C@H]4CCN(CC5CC5)C4)o3)c[nH]c2c1 | – | inconclusive: 50.1 µM [inhibitor, partial curve, poor fit]
28 | COC(=O)c1sc(N)c(C(=O)OC)c1COC(=O)C1CC(=O)N(Cc2ccco2)C1 (centres undefined) | inactive: -19.3% | –
29 | CCc1ccc(OCc2n[nH]c(=S)n2Cc2ccccc2)cc1 | – | inconclusive: 17.8 µM [inhibitor, full curve, poor fit]
30 | O=C(c1ccco1)N1CCN(Cc2cccc([N+](=O)[O-])c2)CC1 | – | inconclusive: 0.631 µM [inhibitor, full curve, poor fit]
31 | Cc1ccc(C(=O)COC(=O)C2CC(=O)N(c3ccccc3)C2)cc1 (centres undefined) | inactive: -15.2% | –
32 | Cn1c(N)c(C(=O)COC(=O)C2(c3ccc(Cl)cc3)CCCC2)c(=O)n(C)c1=O | inactive: 0% | –
33 | CC(Sc1sc(=S)sc1SC(C)C(=O)O)C(=O)O (centres undefined) | – | inconclusive: 50.1 µM [inhibitor, partial curve, poor fit]
34 | N#Cc1ccccc1S(=O)(=O)N[C@H]1CO[C@H]2[C@@H]1OC[C@H]2OC(=O)NC1CCCCC1 | – | inconclusive: 50.1 µM [inhibitor, partial curve, poor fit]
35 | COc1ccc(CN(CC2CCC(C(=O)O)CC2)C(=S)Nc2cc(C)ccc2C)cc1 (centres undefined) | inactive: -26.1% | –
36 | COc1ccccc1NC(=O)CSc1nnc(Cc2ccccc2)o1 | – | inconclusive: 2.51 µM [inhibitor, full curve, poor fit]
37 | O=C(N[C@H]1CO[C@H]2[C@@H]1OC[C@@H]2n1nnnc1Oc1ccc2c(c1)OCO2)c1ccc(C(F)(F)F)cc1 | inactive: -2.93% | –
38 | O=C(CSc1nccn1Cc1ccco1)Nc1ccc(OC(F)(F)F)cc1 | – | inconclusive: 56.2 µM [inhibitor, partial curve, poor fit]
39 | CC(C)CC(=O)NN(C)c1nc(-c2ccccc2)nnc1C(F)(F)F | inactive: -6.38% | –
40 | COc1cc(/C=C/C(=O)OC2CC3CCC2(C)C3(C)C)ccc1O (centres undefined) | – | inconclusive: 126 µM [inhibitor, single point]
41 | CN(C)C(=O)CN1CCCN(Cc2nc3ccccc3o2)CC1 | inactive: -2.35% | –
42 | CC(=O)N1c2ccc(S(=O)(=O)NCCC(=O)NC3CCCC(C)C3C)cc2CC1C (centres undefined) | inactive: 7.2% | –
43 | Cc1ccc(C)c(N2N=C(C(=O)Nc3ccccc3S(=O)(=O)N3CCCCC3)CCC2=O)c1 | – | inconclusive: 44.7 µM [inhibitor, partial curve, poor fit]
44 | CSc1ccccc1C(=O)Nc1c(C)cc(C)cc1C | inactive: -10.2% | –
